Hit rate of the full screen: of about 320,000 compounds, about 2,100 (0.66%) were called active. Inconclusive results, whose numbers are uncertain, are shown with a selection of clear calls. The call rests on the fitted dose curve; in most records, active means well fitted inhibition curve with a large enough effect in the signal ratio, with a control signal flat (not every such curve was filed as active); inconclusive means small, poorly fitted or top-dose-only effect, or effect the other way, or a change in a side signal; inactive means flat fitted curve, though single readings scatter; the % refers to the signal ratio. Where the call is inconclusive, the potency comes from a doubtful curve fit.
Test: qHTS Assay for Lipid Storage Modulators in Drosophila S3 Cells
Details: BODIPY lipid droplet fluorescence, 18-24 h, cells fed with added oleic acid; lipid storage change, negative = inhibition: at 46.1 µM (top of the series) unless noted
Summary of the method: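 Drosophila S3 cells loaded with oleic acid (400 uM, as added) and compounds at several concentrations; lipid droplets imaged by 488-nm laser-scanning cytometry, 500–530 nm intensity and object ratio to cell channel. Percent activity normalized to 20 uM Triacsin C.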
On the % scale 0 is the no-effect control and ±100 the full control effect; potency means the concentration at half of the fitted maximal effect.

Row | SMILES | lipid storage change, negative = inhibition | Potency | outcome
1 | COc1ccc(C(=O)OCC(=O)NC(=O)NC(C)C)cc1OC | inconclusive: 27.8% | – | –
2 | CCOc1ccc(S(=O)(=O)N2CCOCC2)c2ccccc12 | inconclusive: -28% | – | –
3 | CS(=O)(=O)Nc1nnc(CCc2ccccc2)s1 | inconclusive: 71.7% | – | –
4 | O=C1C(Nc2cccc(O)c2)=C(N2CCCCC2)C(=O)c2ccccc21 | – | inconclusive: 20.6 µM [cytotoxic, single point] | –
5 | O=C(COC(=O)c1nc(Cl)ccc1Cl)NC1CCS(=O)(=O)C1 (stereo not given) | inconclusive: -2.2% | – | –
6 | Cc1c(N=CC=Nc2c(C)n(C)n(-c3ccccc3)c2=O)c(=O)n(-c2ccccc2)n1C | inconclusive: -5.54% | – | –
7 | Cn1c2c(c(=O)c3ccccc31)CCC(C)(C)O2 | inconclusive: -8.44% | – | –
8 | Cc1ccc(CN(C)C(=O)CN2C(=O)NC3(CCCc4ccccc43)C2=O)c(C)c1 (stereo not given) | inconclusive: -24.4% | – | –
9 | COc1cc(NC(=S)N2CCc3ccccc3C2)cc(OC)c1 | – | inconclusive: 0.82 µM [rising, full curve, poor fit] | –
10 | O=C(COC(=O)/C=C/c1ccc(F)cc1)Nc1ccc2[nH]c(=O)[nH]c2c1 | inconclusive: -3.98% | – | –
11 | CC(C)Cn1c2ccccc2c2cc(C(=O)O)ccc21 | – | inconclusive: 1.64 µM [falling, partial curve] | –
12 | Cc1ccc(C)c(NC(=S)NCC(c2ccccc2)N(C)C)c1 (stereo not given) | – | – | inactive [at 46.1 µM]
13 | CC(C)(C)Oc1ncc(Br)c(OC(C)(C)C)n1 | – | inconclusive: 6.51 µM [falling, single point] | –
14 | COc1ccc(CC(C)Nc2ccccc2F)cc1 (stereo not given) | – | inconclusive: 29.1 µM [activator, single point] | –
15 | Cc1cc(C(=O)OCC(=O)NCCC(C)C)c2ccccc2n1 | – | inconclusive: 0.651 µM [activator, partial curve, poor fit] | –
16 | Cc1cccc(C(=O)c2cn[nH]c2-c2ccc(C)cc2O)c1 | inconclusive: -23.5% | – | –
17 | COc1ccccc1CNC(=O)/C=C/c1cc2c(cc1Br)OCO2 | inconclusive: 29.5% | – | –
18 | O=C(CSc1ncc(-c2ccccc2)[nH]1)Nc1cccc(O)c1 | inconclusive: 3.57% | – | –
19 | CCOC(=O)C1(Cc2cccc(OC)c2)CCN(C/C=C/c2ccccc2)CC1 | inconclusive: -18.5% | – | –
20 | Cc1ccc(CNC(=O)c2ccc(N3CCC4(CC3)CC(c3ccccc3)=NO4)c(N)c2)cc1 | inconclusive: 36.5% | – | –
21 | Cc1cccc(NC(=O)CNC(=O)CSc2nc(N)cc(N)n2)c1C | inconclusive | – | –
22 | CCOC(=O)c1sc2ncnc(N3CCN(C(=O)OCC)CC3)c2c1C | – | inconclusive: 0.326 µM [activator, partial curve, poor fit] | –
23 | Nc1nonc1-n1nnc(C(=O)N/N=C/C2CCCCC2)c1-c1ccccc1 | inconclusive: -34.6% | – | –
24 | COc1cc(C2c3c(oc4ccc(Cl)cc4c3=O)C(=O)N2Cc2ccco2)cc(OC)c1OC (stereo not given) | inconclusive: -83.2% | – | –
25 | COc1cc(C(=O)O/N=C2/C=C(C)C(=O)C=C2C)cc(OC)c1OC | inconclusive: 21.3% | – | –

Whole records as entered above:
COc1ccccc1CNC(=O)/C=C/c1cc2c(cc1Br)OCO2 is entered as lipid storage change, negative = inhibition: inconclusive: 29.5%
COc1ccc(CC(C)Nc2ccccc2F)cc1 (stereo not given) is entered as Potency: inconclusive: 29.1 µM [activator, single point]

Additional compounds.

Row | SMILES | lipid storage change, negative = inhibition | Potency | outcome
26 | CC(C)C(c1nnnn1Cc1ccc(F)cc1)N1CCN(c2ccc(O)cc2)CC1 (stereo not given) | inconclusive: -11.2% | – | –
27 | COc1cc(CCNC(=O)c2ccccc2NC(=O)C2=C(C)OCCS2)cc(OC)c1OC | inconclusive: 36.8% | – | –
28 | CN1CCC/C1=C/C=C1\SC(=S)NC1=O | inconclusive: -28.9% | – | –
29 | CC(C)CNS(=O)(=O)c1cc(C(=O)N2CC(C)OC(C)C2)c(Cl)cc1Cl (stereo not given) | inconclusive: -15.2% | – | –
30 | C=CCNC(=S)N/N=C/c1ccc(C)c([N+](=O)[O-])c1 | inconclusive: 24.4% | – | –
31 | COc1ccc(OC)c(NC(=O)CSc2ncccc2C(=O)O)c1 | – | – | inactive [at 46.1 µM]
32 | Cc1noc2ncnc(N3CCCC3)c12 | inconclusive: 1.01% [at 9.22 µM] | – | –
33 | O=C(c1cc(-c2ccccc2Cl)nc2ccccc12)N1CCOCC1 | inconclusive: -12.8% | – | –
34 | CCC1(c2ccc(F)cc2)NC(=O)N(CC(=O)Nc2cccc(S(=O)(=O)N3CCCCC3)c2)C1=O (stereo not given) | inconclusive: -29% | – | –
35 | CCCN1CCN(S(=O)(=O)c2c(C)[nH]c(C)c2C(=O)N2CCCCC2)CC1 | – | inconclusive: 29.1 µM [activator, single point] | –
36 | O=C(c1c(F)cccc1F)N1CCCc2ccccc21 | – | inconclusive: 8.2 µM [activator, single point] | –
37 | Cc1cc(C)cc(-n2ncc3c2CCCC3NC(=O)c2cc(C)n(C)n2)c1 (stereo not given) | – | inconclusive: 0.206 µM [falling, full curve] | –
38 | Cc1ccccc1NC(=O)CCC(=O)OCC(=O)c1ccc(-c2ccccc2)cc1 | inconclusive: -23.2% | – | –
39 | Cc1cc(C(=O)N/N=C/c2ccc(-c3cccc([N+](=O)[O-])c3)o2)n[nH]1 | – | inconclusive: 29.1 µM [falling, single point] | –
40 | O=C(O)c1ccc(Nc2ncnc3scc(-c4ccccc4)c23)cc1 | inconclusive: -0.476% | – | –
41 | COc1ccc(O)c(C(=O)c2cnc3c(c2)c(C)nn3C)c1 | – | inconclusive: 25.9 µM [activator, partial curve] | –
42 | Cc1cccc(C)c1NC(=O)CNC(=O)Cc1c[nH]c2ccccc12 | inconclusive: 34.1% | – | –
43 | NS(=O)(=O)c1ccc(CNc2nc(-c3cccnc3)nc3ccccc23)cc1 | inconclusive: 102% | – | –
44 | Cc1ccc(NC(=O)CSc2nccn2Cc2ccco2)c(C)c1 | inconclusive: 18.7% | – | –
45 | CCOCCc1c(O)nc(SC)[nH]c1=O | – | inconclusive: 29.1 µM [cytotoxic, partial curve] | –
46 | Cc1cccc(-n2nnc(C(=O)NCc3ccco3)c2N)c1 | inconclusive: 37.7% [activator] | – | –
47 | CCOC(=O)c1[nH]cnc1C(=O)N1CCC(C)CC1 | – | inconclusive: 0.0046 µM [activator, full curve, poor fit] | –
48 | CCCCOC(=O)C1=C(N)N2C(=O)C(C)SC2=C(C(=O)OCC)C1c1ccc(O)c(OC)c1 (stereo not given) | inconclusive: 6.07% | – | –
49 | COc1ccc(-c2sc(C(=O)c3ccc(Cl)cc3Cl)cc2CC(=O)O)cc1 | – | inconclusive: 29.1 µM [rising, single point] | –
50 | CCCCn1c(N)c(N(CCC(C)C)C(=O)c2cc(-c3ccco3)nc3ccccc23)c(=O)[nH]c1=O | inconclusive: 7.17% | – | –

Four records picked at random from the list so far:
Row | SMILES | lipid storage change, negative = inhibition | Potency | outcome
33 | O=C(c1cc(-c2ccccc2Cl)nc2ccccc12)N1CCOCC1 | inconclusive: -12.8% | – | –
27 | COc1cc(CCNC(=O)c2ccccc2NC(=O)C2=C(C)OCCS2)cc(OC)c1OC | inconclusive: 36.8% | – | –
32 | Cc1noc2ncnc(N3CCCC3)c12 | inconclusive: 1.01% [at 9.22 µM] | – | –
46 | Cc1cccc(-n2nnc(C(=O)NCc3ccco3)c2N)c1 | inconclusive: 37.7% [activator] | – | –

(cont.)

Row | SMILES | lipid storage change, negative = inhibition | Potency | outcome
51 | Cc1ccc(-c2nnn(CC(=O)N(CCCO)C(C(=O)NC3CCCC3)c3ccc(F)cc3)n2)o1 (stereo not given) | – | inconclusive: 11.6 µM [falling, single point] | –
52 | CN(C)C(=O)CSc1nnc(-c2ccncc2)n1Cc1ccco1 | – | inconclusive: 6.51 µM [falling, single point] | –
53 | COc1ccc(NC(=O)COc2ccc(C(=O)OCC(=O)N(C(C)C)C(C)C)cc2OC)cc1 | inconclusive: 32.2% | – | –
54 | CCCCCCOC(=O)c1ccc(OC(=O)c2cccnc2)cc1 | – | inconclusive: 4.11 µM [falling, single point] | –
55 | O=[N+]([O-])c1c(NCCCO)cc(Sc2nc3ccccc3s2)c2nonc12 | inconclusive: -100% | – | –
56 | S=C(Nc1ccc2nc(-c3ccccn3)c(-c3ccccn3)nc2c1)N1CCCCCC1 | inconclusive: 7.23% | – | –
57 | N#CCNC(=O)C1CC(=O)N(CCc2ccc(F)cc2)C1 (stereo not given) | inconclusive: 6.13% | – | –
58 | N#CC1C=Cc2ccccc2N1C(=O)c1ccccc1 (stereo not given) | inconclusive: 12.9% | – | –
59 | O=C(NCC(=O)N1CCN(C(=O)c2ccco2)CC1)c1cccc(Cl)c1 | – | inconclusive: 18.4 µM [activator, partial curve, poor fit] | –
60 | CCOCC(O)CS(=O)(=O)c1ccccn1 (stereo not given) | – | inconclusive: 3.26 µM [falling, full curve] | –
61 | CC(=O)Nc1ccc(NC(=O)c2cccc(S(=O)(=O)N(C)C3CCCCC3)c2)cc1 | inconclusive: -19.6% | – | –
62 | Cc1ccc(-c2cc(C(=O)NC3CCCCC3)no2)cc1 | inconclusive: 114% | – | –
63 | Cc1ccccc1C(=O)NC(CC(C)C)C(=O)N1CCN(c2ccccc2)CC1 (stereo not given) | – | inconclusive: 5.17 µM [falling, partial curve, poor fit] | –
64 | CCOc1ccc2oc(C(=O)N(C)CC(=O)Nc3ccc(OCC)c(OCC)c3)c(C)c2c1 | inconclusive: 18.2% | – | –
65 | O=C(NCc1ccc2c(c1)OCO2)C1CC(=O)N(CCc2ccccc2)C1 (stereo not given) | inconclusive: 51.5% | – | –
66 | C[C@@H]1NS(=O)(=O)[C@H]2C[C@@H]3C=C[C@]2(O3)[C@H]1OC(=O)c1ccccc1Br | – | inconclusive: 0.731 µM [activator, partial curve, poor fit] | –
67 | CC(C(=O)c1c[nH]c(C(N)=O)c1)c1ncc(C(F)(F)F)cc1Cl (stereo not given) | – | inconclusive: 0.0046 µM [falling, full curve, poor fit] | –
68 | CCO/C=N/c1c(C#N)c2c(c(=S)n1C)COC(C)(C)C2 | inconclusive: -36.9% | – | –
69 | CC(C)(C)NC(=O)NC(=O)COC(=O)CNS(=O)(=O)c1ccc(Br)cc1Cl | inconclusive: -7.72% | – | –
70 | CCOc1ccc(N(CC(=O)N/N=C/c2ccccn2)S(=O)(=O)c2ccc(Cl)cc2)cc1 | – | inconclusive: 11.6 µM [falling, single point] | –
71 | Cc1nn(C)c(C)c1CN(C)C(=O)c1nn2c(c1Br)NC(c1cccs1)CC2C(F)(F)F (stereo not given) | inconclusive: 9.08% | – | –
72 | Cc1cc(C)n(CCCN2C(=O)c3cccc4cccc(c34)C2=O)n1 | – | – | inactive [at 46.1 µM]
73 | Cc1oc2c(cc(NS(=O)(=O)c3cccs3)c3ccccc32)c1C(=O)OC(C)C | – | inconclusive: 23.1 µM [falling, single point] | –
74 | CCOC(=O)C1=C(C)NC(SCC(=O)OC)=C(C#N)C1c1ccc(C(=O)OC)cc1 (stereo not given) | inconclusive: -13% | – | –
75 | COc1ccccc1C(=O)CSc1ccccn1 | inconclusive: 15.6% | – | –

— PubChem BioAssay AID2685 (National Center for Advancing Translational Sciences (NCATS), 2010)
